Measurements published in paper PMC5393896.
No constants are given. Whether binding was seen depends on the method and setting. Binding seen in cells or lysates may run through a third protein. Some binding calls cover weakened binding; strength is not graded here.

The chains behind the UniProt entries cited, without tags or fusion partners.
UniProt P47117: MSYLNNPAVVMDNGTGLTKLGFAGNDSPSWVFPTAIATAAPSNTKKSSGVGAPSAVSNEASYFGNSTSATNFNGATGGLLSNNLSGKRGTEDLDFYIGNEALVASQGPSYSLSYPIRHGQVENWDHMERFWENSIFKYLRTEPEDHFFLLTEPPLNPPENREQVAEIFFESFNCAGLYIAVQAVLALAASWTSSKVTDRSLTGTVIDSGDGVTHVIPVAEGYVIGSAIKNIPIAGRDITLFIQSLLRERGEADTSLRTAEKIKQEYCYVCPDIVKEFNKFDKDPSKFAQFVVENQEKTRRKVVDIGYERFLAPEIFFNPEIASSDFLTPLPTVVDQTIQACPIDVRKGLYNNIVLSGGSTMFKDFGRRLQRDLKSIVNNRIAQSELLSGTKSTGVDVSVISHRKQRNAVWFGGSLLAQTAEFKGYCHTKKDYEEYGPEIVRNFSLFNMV

Biological target: Sup35 translation termination factor tagged at its C-terminus with a tandem affinity purification (TAP) tag (S. cerevisiae) (UniProt P05453)
Test: co-IP; Sup35-TAP immunoprecipitated from wild-type and tsa1 tsa2 mutant extracts; immunoblot with antibodies against Abp1, Arp3, Sap190 and Act1

Row | binding | Substance
1 | binds | Arp3 (from UniProt P47117 1-449)
2 | binds | Act1 (from UniProt P60010 1-375) (other; other documents disagree on this pair)
